Experimental data taken from publication PMC10275753.
Results are given in words; binding and its absence hold for the method and conditions named. Binding seen in cells or lysates may run through a third protein. Some entries that bind do so weakly or less than the wild type.

Protein sequences, listed by entry. Tags and fused reporters are not part of them. Residues count along the entry.
UniProt O88844: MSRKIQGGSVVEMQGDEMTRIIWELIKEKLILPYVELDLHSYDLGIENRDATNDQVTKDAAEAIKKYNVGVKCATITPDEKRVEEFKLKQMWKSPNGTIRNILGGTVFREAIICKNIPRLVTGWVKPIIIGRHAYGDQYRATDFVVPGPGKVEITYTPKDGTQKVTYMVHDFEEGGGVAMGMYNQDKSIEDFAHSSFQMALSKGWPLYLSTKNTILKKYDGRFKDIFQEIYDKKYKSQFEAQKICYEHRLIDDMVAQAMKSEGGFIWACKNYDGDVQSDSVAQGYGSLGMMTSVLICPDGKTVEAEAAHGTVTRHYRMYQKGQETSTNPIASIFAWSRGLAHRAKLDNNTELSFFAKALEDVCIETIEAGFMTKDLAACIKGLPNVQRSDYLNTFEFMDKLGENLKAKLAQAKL
UniProt P01731, residues 28-247: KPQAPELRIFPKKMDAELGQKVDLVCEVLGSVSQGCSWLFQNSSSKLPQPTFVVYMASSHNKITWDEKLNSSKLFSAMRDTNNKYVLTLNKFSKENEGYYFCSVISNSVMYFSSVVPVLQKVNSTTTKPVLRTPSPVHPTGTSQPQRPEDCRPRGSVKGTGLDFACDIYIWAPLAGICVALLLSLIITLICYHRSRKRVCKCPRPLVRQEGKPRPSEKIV

Molecular target: Isocitrate Dehydrogenase-1 (IDH1), native mouse protein of splenocyte lysates (mouse (endogenous in splenocytes)) (UniProt O88844)
Test: co-IP; anti-IDH1 immunoprecipitation of native IDH1 from surface-biotinylated mouse splenocyte lysates (wild-type or CD8β-deficient); protein G agarose; blots with streptavidin or anti-CD8α (2.43); reducing conditions

- binding: binds
Substance: CD8αα dimer, mouse, from CD8β-deficient splenocytes (from UniProt P01731 28-247) (complex)
